Read-outs that look alike come from different tables or passages of the source. Hit rate of the full screen: of about 3,300 compounds, about 95 (3%) showed an effect of 50% or more. The list shows a part of the results. Peptide text beside a SMILES is read from it.
System: HCoV-229E
Set-up: species or system Huh-7; HTS, protection from HCoV-229E induced cell death, luminescent cell viability (CellCounting-Lite 2.0), inhibition rate
Conditions: 24 h post infection, 1 h compound pre-incubation, 10 µM, inhibitor

Row | SMILES | 229E Inhibition rate [%] | 229E Inhibition rate (229E Inhibition rate, 24 h) [%]
1 | COc1cc(-c2oc3cc(O)cc(O)c3c(=O)c2O[C@@H]2O[C@H](CO[C@@H]3O[C@@H](C)[C@H](O)[C@@H](O)[C@H]3O)[C@@H](O)[C@H](O)[C@H]2O[C@@H]2O[C@@H](C)[C@H](O)[C@@H](O)[C@H]2O)ccc1O [Typhaneoside] | 16.9 | 
2 | CC(C)[C@@H]1NC(=O)CNC(=O)[C@H](C)NC(=O)[C@H](Cc2c[nH]c3ccccc23)NC(=O)[C@H](C)NC1=O [Segetalin B] (cyclo(AGVAW)) | 9.2 | 
3 | C=C(C)[C@@H]1CC[C@]2(C)[C@H](CC=C3[C@@H]4[C@@H](C)[C@H](C)CC[C@]4(C)CC[C@]32C)[C@@]1(C)CCC(=O)O [Roburic acid] | 29.2 | 
4 | COc1cc2ccc(=O)oc2cc1O [Scopoletin] | 15 | 
5 | O=C(C[C@H]1NCCC[C@@H]1O)Cn1cnc2cc(Br)c(Cl)cc2c1=O (racemic) [Halofuginone] |  | 29.9
6 | O=C(O)CCCC[C@@H]1CCSS1 [Lipoic acid] | 22.6 | 
7 | Cc1cc(O)cc(C)c1O [2,6-Dimethylhydroquinone] | 22.1 | 
8 | O=Cc1cccs1 [2-Thiophenecarboxaldehyde] | 6.5 | 
9 | CCCSSC [Methyl propyl disulfide] | 9.2 | 
10 | C1=Cc2cccc3cccc1c23 [Acenaphthylene] | 13.4 | 
11 | CC(C)CCC[C@@H](C)[C@H]1CC[C@H]2[C@@H]3CC[C@H]4CC(=O)CC[C@]4(C)[C@H]3CC[C@]12C [5α-Cholestan-3-one] | 7.8 | 
12 | C=C1C[C@@]23CC[C@H]4[C@@](C)(CCC[C@@]4(C)C(=O)O[C@@H]4O[C@H](CO)[C@@H](O)[C@H](O)[C@H]4O)[C@@H]2CC[C@]1(O[C@@H]1O[C@H](CO)[C@@H](O)[C@H](O)[C@H]1O)C3 [Rubusoside] | 5.1 | 
13 | CC/C=C\C/C=C\C/C=C\CCCCCCCC(=O)OC [Methyl linolenate] | 18.3 | 
14 | COC(=O)[C@]12OC[C@]34[C@H]([C@@H](O)[C@@H]1O)[C@@]1(C)CC(=O)C(O)=C(C)[C@@H]1C[C@H]3OC(=O)[C@H](OC(=O)C=C(C)C)[C@@H]24 [Brusatol] | 15.3 | 
15 | COc1ccc2c(OC)c3ccoc3nc2c1 [Evolitrine] | 8.5 | 
16 | c1cncc([C@@H]2CCCCN2)c1 [Anabasine] | 10.7 | 
17 | C[C@@H](N)C(=O)O [D-Alanine] | 14.5 | 
18 | O=c1[nH]cc(CO)c(=O)[nH]1 [5-Hydroxymethyluracil] | 7 | 
19 | COc1ccc(-c2coc3cc(O[C@@H]4O[C@H](CO)[C@@H](O)[C@H](O)[C@H]4O)ccc3c2=O)cc1O [Calycosin-7-O-β-D-glucoside] | 17.9 | 

Row | SMILES | 229E Inhibition rate [%] | 229E Inhibition rate (229E Inhibition rate, 24 h) [%]
20 | CC1(C)CC[C@]2(C(=O)O[C@@H]3O[C@H](CO)[C@@H](O)[C@H](O)[C@H]3O)CC[C@]3(C)C(=CC[C@@H]4[C@@]5(C)CC[C@H](O)C(C)(C)[C@@H]5CC[C@]43C)[C@@H]2C1 [Oleanolic acid 28-O-β-D-glucopyranoside] | 21.6 | 
21 | CC1(C)[C@H](OC(=O)c2ccccc2)CC[C@]2(C)C3=C([C@@H](O)C[C@@H]12)[C@@]1(C)CC[C@@]2(C)CC[C@@](C)(COC(=O)c4ccccc4)C[C@H]2[C@]1(C)CC3 [3,29-Dibenzoyl rarounitriol] | 20.2 | 
22 | O=C(O)CCCCCCCCCC(=O)O [Undecanedioic acid] | 15.1 | 
23 | CCOC(=O)/C=C/c1ccc(OC)cc1 [(E)-Ethyl p-methoxycinnamate] | 17.3 | 
24 | C[C@@H]1O[C@@H](Oc2c(-c3ccc(O)cc3)oc3cc(O[C@@H]4O[C@@H](C)[C@H](O)[C@@H](O)[C@H]4O[C@@H]4O[C@H](CO)[C@@H](O)[C@H](O)[C@H]4O)cc(O)c3c2=O)[C@H](O)[C@H](O)[C@H]1O [Grosvenorine] | 15.4 | 
25 | COc1ccc2[nH]c(=O)oc2c1 [Coixol] | 0 | 
26 | COc1cc2c(cc1OC)[C@@H]1Cc3ccc(OC)c(OC)c3CN1CC2 [Rotundine] |  | 14.2
27 | CC(=O)O[C@H]1C(=O)[C@@]2(C)[C@H]([C@H](OC(=O)c3ccccc3)[C@]3(O)C[C@H](O)C(C)=C1C3(C)C)[C@]1(OC(C)=O)CO[C@@H]1C[C@@H]2O [Baccatin III] | 20.5 | 
28 | CC(=O)CCc1ccccc1 [Benzylacetone] | 14.7 | 
29 | O=C(/C=C/c1ccc(O)cc1)c1c(O)cc(O)cc1O [Naringenin chalcone] | 38.1 | 
30 | C=C[C@]1(C)C[C@@H](OC(=O)CO)[C@]2(C)[C@H](C)CC[C@]3(CCC(=O)[C@H]32)[C@@H](C)[C@@H]1O [Pleuromutilin] | 38.5 | 
31 | COc1cc(-c2coc3c([C@@H]4O[C@H](CO)[C@@H](O)[C@H](O)[C@H]4O)c(O)ccc3c2=O)ccc1O [3'-Methoxypuerarin] | 34.9 | 
32 | Cc1cc(O)cc(O)c1C(=O)O [Orsellinic acid] | 15 | 
33 | CCC(O)CC(=O)O (stereo not shown) [3-Hydroxyvaleric acid] | 9.6 | 
34 | C=C(CCC=C(C)C)[C@H]1CC[C@]2(C)[C@@H]1[C@H](O)C[C@@H]1[C@@]3(C)CC[C@H](O[C@@H]4O[C@H](CO)[C@@H](O)[C@H](O)[C@H]4O[C@@H]4O[C@H](CO)[C@@H](O)[C@H](O)[C@H]4O)C(C)(C)[C@@H]3CC[C@]12C [Ginsenoside Rk1] | 9.9 | 
35 | CC(=O)NCC(=O)O [N-Acetylglycine] | 10.2 | 
36 | CC(C)=CC/C=C(\C)[C@H]1CC[C@]2(C)[C@@H]1[C@H](O)C[C@@H]1[C@@]3(C)C[C@@H](O)[C@H](O[C@@H]4O[C@H](CO)[C@@H](O)[C@H](O)[C@H]4O[C@@H]4O[C@H](CO)[C@@H](O)[C@H](O)[C@H]4O)C(C)(C)[C@@H]3CC[C@]12C [Damulin A] | 23.1 | 
37 | Cc1cc(=O)c2c(O)cc(O)cc2o1 [Noreugenin] | 48.9 | 

10 of these compounds, set out differently.
Row,SMILES,229E Inhibition rate [%],"229E Inhibition rate (229E Inhibition rate, 24 h) [%]"
20,CC1(C)CC[C@]2(C(=O)O[C@@H]3O[C@H](CO)[C@@H](O)[C@H](O)[C@H]3O)CC[C@]3(C)C(=CC[C@@H]4[C@@]5(C)CC[C@H](O)C(C)(C)[C@@H]5CC[C@]43C)[C@@H]2C1 [Oleanolic acid 28-O-β-D-glucopyranoside],21.6,
21,"CC1(C)[C@H](OC(=O)c2ccccc2)CC[C@]2(C)C3=C([C@@H](O)C[C@@H]12)[C@@]1(C)CC[C@@]2(C)CC[C@@](C)(COC(=O)c4ccccc4)C[C@H]2[C@]1(C)CC3 [3,29-Dibenzoyl rarounitriol]",20.2,
22,O=C(O)CCCCCCCCCC(=O)O [Undecanedioic acid],15.1,
23,CCOC(=O)/C=C/c1ccc(OC)cc1 [(E)-Ethyl p-methoxycinnamate],17.3,
24,C[C@@H]1O[C@@H](Oc2c(-c3ccc(O)cc3)oc3cc(O[C@@H]4O[C@@H](C)[C@H](O)[C@@H](O)[C@H]4O[C@@H]4O[C@H](CO)[C@@H](O)[C@H](O)[C@H]4O)cc(O)c3c2=O)[C@H](O)[C@H](O)[C@H]1O [Grosvenorine],15.4,
25,COc1ccc2[nH]c(=O)oc2c1 [Coixol],0,
26,COc1cc2c(cc1OC)[C@@H]1Cc3ccc(OC)c(OC)c3CN1CC2 [Rotundine],,14.2
27,CC(=O)O[C@H]1C(=O)[C@@]2(C)[C@H]([C@H](OC(=O)c3ccccc3)[C@]3(O)C[C@H](O)C(C)=C1C3(C)C)[C@]1(OC(C)=O)CO[C@@H]1C[C@@H]2O [Baccatin III],20.5,
28,CC(=O)CCc1ccccc1 [Benzylacetone],14.7,
29,O=C(/C=C/c1ccc(O)cc1)c1c(O)cc(O)cc1O [Naringenin chalcone],38.1,

Reference: PMC12431657, “Discovery and mechanistic insights of dibenzoylmethane as a broad spectrum inhibitor of coronavirus” (PLOS Pathogens, 2025)
